Results are given in words; binding and its absence hold for the method and conditions named. Some results given as binding are weak or reduced against the parent protein; the word gives no strength.
Molecular target: T1, EcNhaA WT-like triple mutant (A109T, Q277G, L296M) (E. coli), P13738
T1 chain: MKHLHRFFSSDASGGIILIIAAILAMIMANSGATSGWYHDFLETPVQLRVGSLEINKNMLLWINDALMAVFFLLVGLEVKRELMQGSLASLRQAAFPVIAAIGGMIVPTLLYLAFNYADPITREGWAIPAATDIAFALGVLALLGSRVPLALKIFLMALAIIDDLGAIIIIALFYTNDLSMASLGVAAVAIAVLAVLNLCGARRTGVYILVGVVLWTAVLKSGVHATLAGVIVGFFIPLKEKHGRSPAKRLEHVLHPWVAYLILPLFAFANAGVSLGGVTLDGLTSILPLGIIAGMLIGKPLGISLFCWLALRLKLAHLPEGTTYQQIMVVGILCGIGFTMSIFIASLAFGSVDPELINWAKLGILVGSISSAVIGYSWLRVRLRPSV
Experiment: cryo-EM structure
Settings: remark: other sources report otherwise

B1: EcNhaA WT-like triple mutant (A109T, Q277G, L296M), P13738 1-388 (natural protein)
chain: T1 chain
For B1, the binding was “binds”.

Source: article doi:10.1101/2023.09.10.557050 (bioRxiv, 2023)
